Experimental data from paper PMC3731359 (PLoS ONE, 2013).
No constants are given. Whether binding was seen depends on the method and setting. Some entries that bind do so weakly or less than the wild type.

Chains of the proteins cited; added tags and fusions are not shown. Lines headed by an entry give the natural chain unless they say otherwise; changes in a name come on top.
UniProt Q13564: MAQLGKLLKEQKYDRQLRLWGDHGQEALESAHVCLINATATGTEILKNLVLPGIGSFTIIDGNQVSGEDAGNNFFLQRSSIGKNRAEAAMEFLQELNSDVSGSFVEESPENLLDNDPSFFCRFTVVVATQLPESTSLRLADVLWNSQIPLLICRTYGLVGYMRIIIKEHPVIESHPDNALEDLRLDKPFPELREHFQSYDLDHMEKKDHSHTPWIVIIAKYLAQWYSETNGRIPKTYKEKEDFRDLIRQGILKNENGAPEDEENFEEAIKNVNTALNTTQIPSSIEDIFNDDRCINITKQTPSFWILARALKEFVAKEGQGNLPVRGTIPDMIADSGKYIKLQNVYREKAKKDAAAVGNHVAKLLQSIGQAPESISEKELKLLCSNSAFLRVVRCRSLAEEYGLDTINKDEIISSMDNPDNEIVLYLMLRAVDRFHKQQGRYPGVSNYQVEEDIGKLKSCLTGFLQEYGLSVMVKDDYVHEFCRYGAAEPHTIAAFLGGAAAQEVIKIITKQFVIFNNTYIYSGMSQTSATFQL

How the values were obtained:
[1] = target: T1, Ubc12 (UniProt P61081 1-183); assay: thioester conjugate formation (SDS-PAGE, Western blot); 5 µM biotin labeled peptide with 1 µM NAE, 1 µM Ubc12 and 1 µM cullin, 1 mM ATP, 10 mM MgCl2, 50 µM DTT, TBS, 1 hour, room temperature; streptavidin-HRP blot; covalent conjugates; both purified
T1 construct: also called E2; source: expressed and purified as previously reported [33]
T1 sequence (looked up): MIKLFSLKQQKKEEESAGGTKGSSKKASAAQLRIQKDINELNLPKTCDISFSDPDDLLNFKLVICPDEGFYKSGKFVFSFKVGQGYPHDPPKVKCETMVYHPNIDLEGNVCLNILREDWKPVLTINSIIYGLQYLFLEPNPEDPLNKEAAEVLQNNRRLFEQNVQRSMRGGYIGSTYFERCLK

[2] = target: Nedd8 activating enzyme (NAE), heterodimer of APPBP1 and Uba3 (UniProt Q13564); assay: as above
[3] = target: Nedd8 activating enzyme (NAE), heterodimer of APPBP1 and Uba3 (UniProt Q13564); assay: inhibition of thioester conjugate formation (SDS-PAGE, Western blot); 10, 20 and 50 µM peptide preincubated with 1 µM NAE, 1 mM ATP, 10 mM MgCl2, TBS, 1 hour, room temperature; then 5 µM HA-Nedd8 for 15 min; anti-HA blot; both purified

VWLSYGG (biotin (NHS-LC-LC-biotin) on the N-terminal amino group) [biotin-pN1 (VWLSYGG)]
binding [1]: no binding (tested: 5 µM)
binding [2]: binds

VMLFYGG (biotin (NHS-LC-LC-biotin) on the N-terminal amino group) [biotin-pN7 (VMLFYGG)]
binding [1]: binds weakly
binding [2]: binds

VLALRGG (biotin (NHS-LC-LC-biotin) on the N-terminal amino group) [biotin-pN26 (VLALRGG)]
binding [2]: binds

VWLSYGG [peptide pN1 (70VWLSYGG76)]
binding [3]: binds

VMLFYGG [peptide pN7 (70VMLFYGG76)]
binding [3]: binds

VLALRGG [peptide pN26 (70VLALRGG76)]
binding [3]: binds
